US20260207585A1, “METHODS AND COMPOSITIONS FOR THE TREATMENT OF PARKINSON'S DISEASE, HUNTINGTON'S DISEASE, AMYOTROPHIC LATERAL SCLEROSIS, AND LEARNING DISORDERS” (Cedars-Sinai Medical Center, priority 2022, published 2026)

Tested on: soluble fraction of brain homogenates
Assay: Mass spectrometry proteomics of brain homogenates with IPA
Assay type: in vivo
Settings: ETP69-treated vs DMSO-treated AD+ mice
Experimental: The results included levodopa (L-dopa), a naturally occurring product that is also a drug for the management of Parkinson's motor symptoms.
Mass spectrometry (MS) analysis on the soluble fraction of brain homogenates extracted from the […] WT and neurodegenerative (AD) mice cohort was performed (DMSO-treated WT mice: n=8; ETP69-treated WT mice: n=7; DMSO-treated AD^+ mice: n=6; ETP69-treated AD^+ n=6).
The effects of ETP69 on the molecular pathways related to neuroprotection and cognitive function was assessed.

With `CN1C(=O)[C@@]23C[C@](C)(C#N)[C@H](c4ccc5c(c4)OCO5)N2C(=O)[C@]1(C)SS3` (racemic) [ETP69, Rac-(3S,6S,7S,8aS)-6-(benzo[d][1,3]dioxol-5-yl)-2,3,7-trimethyl-1,4-dioxohexahydro-6H-3,8a-epidithiopyrrolo[1,2-a]pyrazine-7-carbonitrile] the “IPA upstream regulator activation z score, BDNF” value was 2.42, the “IPA upstream regulator activation z score, GABA” value was 2.50 and the “IPA upstream regulator activation z score, Rictor” value was 3.59.
